Measurements from the supplement of paper PMC10689618.
Where a name gives a salt, the structure may show the parent alone. Some of the results follow. Many values rest on one well or one pass, so single values are uncertain.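 Primary human fetal astrocytes engulfed labelled rat cortical synaptosomes, measured as a red/green ratio corrected for calcein live-cell signal and scaled to the plate median. Toxicity meant calcein falling over 30%; decreased phagocytosis meant below 70% of median above 5 µM.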

Legend:
[1] = tested on: Human fetal astrocytes; assay: loss of total cells relative to no-compound high-control median (toxicity); higher = more toxic (fewer cells); conditions: 24 h
[2] = tested on: Human fetal astrocytes; assay: synaptosome phagocytosis (pHrodo/calcein intensity ratio) relative to plate median of data wells; higher = more phagocytosis; conditions: 24 h

SMILES	loss of total cells ([1]; 1.39 µM) [%]	loss of total cells ([1]; 2.78 µM) [%]	loss of total cells ([1]; 5.56 µM) [%]	loss of total cells ([1]; 11.11 µM) [%]	loss of total cells ([1]; 22.22 µM) [%]	synaptosome phagocytosis ([2]; 1.39 µM) [%]	synaptosome phagocytosis ([2]; 2.78 µM) [%]	synaptosome phagocytosis ([2]; 5.56 µM) [%]	synaptosome phagocytosis ([2]; 11.11 µM) [%]	synaptosome phagocytosis ([2]; 22.22 µM) [%]
COC(=O)N/N=C/c1c[n+]([O-])c2ccccc2[n+]1[O-]	7.6	-8	-13.7	32.9	1.1	110	105	87.9	102	117
C[C@H](CCC(=O)O)[C@H]1CC[C@H]2[C@@H]3[C@H](O)C[C@@H]4C[C@H](O)CC[C@]4(C)[C@H]3CC[C@]12C	-5.6	3.7	-7.7	-2.6	38.6	91.5	102	77	93.8	107
COc1c(O)cc(O)cc1O	-9.1	15.3	6.9	36.8	19.6	94	129	105	155	133
CC(=O)c1ccc(S(=O)(=O)NC(=O)NC2CCCCC2)cc1 [Acetohexamide]	20.2	-22.2	14.3	-1.6	2.2	149	89.4	137	94.2	120
CO/N=C(\C(=O)N[C@@H]1C(=O)N2C(C(=O)OC(C)OC(C)=O)=C(COC(N)=O)CS[C@H]12)c1ccco1 (stereo not given in full)	27.4	-31.7	6.8	37	0.9	130	130	126	129	127
NC(=O)NC1NC(=O)NC1=O (stereo not given)	12.2	-5.1	-19.5	4.9	15.5	115	103	94.4	123	104
COC(=O)[C@@H]1[C@H]2C[C@H]3c4[nH]c5ccccc5c4CCN3C[C@@H]2CC[C@@H]1O	25.2	-5.8	-18.8	5.5	19.8	94.5	102	97	80.2	121
CCC(=O)OCC(=O)[C@@]1(OC(=O)CC)[C@H](C)C[C@H]2[C@H]3[C@H]([C@@H](O)C[C@@]21C)[C@@]1(C)C=CC(=O)C=C1C[C@H]3Cl	-32.3	-32.5	-7.5	18.7	-11.5	122	125	113	111	99.4
CN(C)c1ccc2nc3ccc(=[N+](C)C)cc-3sc2c1	26.6	-13.5	12.4	14.8	14	144	83.8	103	30.8	39.4
CC(=O)OCC(=O)[C@@]1(O)CC[C@H]2[C@@H]3CCC4=CC(=O)CC[C@]4(C)[C@@]3(F)[C@@H](O)C[C@@]21C	3.3	-10.5	-30.7	-9.5	-10	105	90.7	111	128	111
OC[C@H]1O[C@@H](Oc2ccc(O)cc2)[C@H](O)[C@@H](O)[C@@H]1O	-9.8	-1.8	9.5	11.5	11.9	126	109	110	107	129
NCCCNCCCCNCCCN [Spermine tetrahydrochloride]	-2.5	15.5	29	17.2	7.6	108	73.2	22.6	63.6	63.6
COC(=O)C[C@H]1C(C)(C)[C@@H](O)[C@@H]2CC3=C4CC(O)O[C@@H](c5ccoc5)[C@]4(C)CCC3[C@@]1(C)C2=O (stereo partly drawn) [3,16-DIDEOXYMEXICANOLIDE-3beta-DIOL]	13.4	34.6	-4.6	8.4	8.5	53.3	90.1	99.5	54.6	87.3
CN1CCC(=C2c3ccccc3Sc3ccccc32)CC1	19.9	22	13	-7.9	28	97.3	112	104	130	144
OC(CCN1CCCCC1)(c1ccccc1)C1CC2C=CC1C2 (stereo not given)	-32.3	-41.3	0.6	-21.3	9	89.9	93.3	122	74.6	97.8
CC(=O)O[C@H]1CC[C@@]2(C)C(=CC=C3[C@@H]4CC[C@H]([C@H](C)/C=C/[C@H](C)C(C)C)[C@@]4(C)CC[C@@H]32)C1	-18.5	0	-5.3	35.5	-7	97.3	102	122	120	68.3
COC(=O)[C@H]1[C@H]2C[C@H]3c4[nH]c5ccccc5c4CCN3C[C@@H]2CC[C@@H]1O	-27	-2.5	-10.3	7.4	8.9	58.8	97.7	86.5	73.3	110
O=C(OCC(O)CO)c1ccccc1Nc1ccnc2cc(Cl)ccc12 (stereo not given)	25.6	14.1	15.2	9.6	18.9	105	105	82.6	71.8	128
CC(=O)OC/C=C(C)/C=C/C=C(C)/C=C/C1=C(C)CCCC1(C)C	4.7	24.9	1.4	0.4	3	102	125	70.4	126	95
N=C(N)c1ccc(OCCCCCOc2ccc(C(=N)N)cc2)cc1	28.5	24.9	15.9	1.3	20.5	141	121	78.9	75.3	98.5

SMILES	loss of total cells ([1]; 1.39 µM) [%]	loss of total cells ([1]; 2.78 µM) [%]	loss of total cells ([1]; 5.56 µM) [%]	loss of total cells ([1]; 11.11 µM) [%]	loss of total cells ([1]; 22.22 µM) [%]	synaptosome phagocytosis ([2]; 1.39 µM) [%]	synaptosome phagocytosis ([2]; 2.78 µM) [%]	synaptosome phagocytosis ([2]; 5.56 µM) [%]	synaptosome phagocytosis ([2]; 11.11 µM) [%]	synaptosome phagocytosis ([2]; 22.22 µM) [%]
O.O.O.O.O=C([O-])CC(O)(CC(=O)[O-])C(=O)[O-].[Li+].[Li+].[Li+]	19.4	-27.8	5.6	-6.2	5.9	110	103	82.1	85.3	120
Cc1cccc(Nc2ccccc2C(=O)O)c1C	-11.6	-34.5	-11.1	-7.8	11.3	108	99.5	90.3	74.9	108
CC(=O)Oc1cc2c(c(C)c1OC(C)=O)CC=C1[C@@]2(C)CC[C@@]2(C)C3C[C@](C)(C(=O)O)CC[C@]3(C)CC[C@]12C (stereo not given in full)	1.8	7.6	8	79.9	30.3	106	96.5	56.6	0	36.1
CC[C@H](CC[C@@H](C)[C@H]1CC[C@H]2[C@@H]3CC=C4C[C@@H](O)CC[C@]4(C)[C@H]3CC[C@]12C)C(C)C	-9.1	-8.6	41.2	1.9	30	106	82.4	152	95.5	148
C[C@@H]1O[C@@H](Oc2c(-c3ccc(O)c(O)c3)oc3cc(O)cc(O)c3c2=O)[C@H](O)[C@H](O)[C@H]1O	-0.4	24.9	21	13.8	6.8	131	120	173	79.4	98.9
C/C(=C\C(=O)OCCCCCCCCC(=O)O)C[C@@H]1OC[C@H](C[C@@H]2O[C@H]2[C@@H](C)[C@H](C)O)[C@@H](O)[C@H]1O	-43.5	14.3	1.2	37	4.7	92.1	98.2	68.8	144	104
COc1c2occc2c(OC)c2c(=O)cc(C)oc12	25.6	26.4	23.9	-2.1	5.3	125	99.1	128	110	101
C=C1C(=O)O[C@@H]2C[C@@]3(C)CCC[C@H](C)C3=C[C@H]12	-20.5	-9.7	1.5	-4.1	-3.7	139	113	103	72.9	42.8
CC(C)CC(NC(=O)[C@H](C)N)C(=O)O (mixture of isomers)	-30.3	-2.5	6.6	3.4	-6.7	71.1	117	89.3	82.3	77
Cc1cc2c(cc1S(N)(=O)=O)S(=O)(=O)CCC2	29.2	24.2	23.2	3.8	24.2	102	148	149	114	172
COc1ccc2oc(-c3ccccc3OC)cc(=O)c2c1	-4.9	-6.9	-2.2	20.9	-2.2	126	116	132	115	100
CC(=O)[C@@]1(O)CC[C@H]2[C@@H]3C[C@H](C)C4=CC(=O)C=C[C@]4(C)[C@@]3(F)[C@@H](O)C[C@@]21C	-6.8	-28.8	-8.4	-13	17.9	106	111	128	110	128
CC(=O)OC1CCC2(C)C(=CCC3C2CCC2(C)C(C(C)CCCC(C)C)CCC32)C1 (stereo not given)	-16.3	9.3	21.4	-1.3	-23.3	87.7	116	134	76.8	112
O=C(O)/C=C/C=C/c1ccccc1	-18.5	12	30.5	4.5	-19.6	98.6	119	149	97.7	81.5
CCN1CCCC1CNC(=O)c1cc(S(N)(=O)=O)ccc1OC (stereo not given)	20.7	-13.1	13.5	14.8	4	81	113	114	64.6	95.9
O=C1c2cccc(O)c2C(=O)c2c(O)cccc21	-37.3	-4.6	-8.7	-10.9	9.1	94.2	97.9	109	108	106
Cn1cnc([N+](=O)[O-])c1Sc1ncnc2[nH]cnc12	2.5	-14.3	14.1	-14.8	26.1	102	113	123	122	123
COc1ccc(-c2cc(=O)c3c(OC(C)=O)cc(OC(C)=O)cc3o2)cc1	25.7	-0.7	-12.2	41.9	10	116	75.9	78.4	132	130
NC(=O)c1ccccc1O	13.4	-30.8	-23.7	2.6	5.2	105	124	118	91.9	94.5

Ordered by molecular weight (smallest number first): some entries from above.
SMILES	loss of total cells ([1]; 1.39 µM) [%]	loss of total cells ([1]; 2.78 µM) [%]	loss of total cells ([1]; 5.56 µM) [%]	loss of total cells ([1]; 11.11 µM) [%]	loss of total cells ([1]; 22.22 µM) [%]	synaptosome phagocytosis ([2]; 1.39 µM) [%]	synaptosome phagocytosis ([2]; 2.78 µM) [%]	synaptosome phagocytosis ([2]; 5.56 µM) [%]	synaptosome phagocytosis ([2]; 11.11 µM) [%]	synaptosome phagocytosis ([2]; 22.22 µM) [%]
O=C1c2cccc(O)c2C(=O)c2c(O)cccc21	-37.3	-4.6	-8.7	-10.9	9.1	94.2	97.9	109	108	106
CC(=O)[C@@]1(O)CC[C@H]2[C@@H]3C[C@H](C)C4=CC(=O)C=C[C@]4(C)[C@@]3(F)[C@@H](O)C[C@@]21C	-6.8	-28.8	-8.4	-13	17.9	106	111	128	110	128
C/C(=C\C(=O)OCCCCCCCCC(=O)O)C[C@@H]1OC[C@H](C[C@@H]2O[C@H]2[C@@H](C)[C@H](C)O)[C@@H](O)[C@H]1O	-43.5	14.3	1.2	37	4.7	92.1	98.2	68.8	144	104
